Measurements: patent publication US7381728B2, “Piperazine derivatives useful for the treatment of gastrointestinal disorders” (Glaxo Group Limited, priority 2004, dated 2008)
Some of these results come from one statement about several compounds together.

By UniProt entry, the sequences of proteins in these tests, tags left out.
UniProt Q92847, whole entry: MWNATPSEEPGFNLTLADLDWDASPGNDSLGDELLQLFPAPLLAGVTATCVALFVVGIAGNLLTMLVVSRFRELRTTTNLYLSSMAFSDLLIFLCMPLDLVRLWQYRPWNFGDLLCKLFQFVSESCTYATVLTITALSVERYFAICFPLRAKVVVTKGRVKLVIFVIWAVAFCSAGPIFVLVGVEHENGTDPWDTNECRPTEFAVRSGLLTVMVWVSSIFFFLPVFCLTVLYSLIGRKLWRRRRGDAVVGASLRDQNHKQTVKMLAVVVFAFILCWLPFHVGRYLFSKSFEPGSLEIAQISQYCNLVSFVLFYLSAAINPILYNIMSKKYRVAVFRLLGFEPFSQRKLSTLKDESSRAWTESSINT

What was measured:
Ghrelin Receptor GHS-R [1] = biological target: T1, Ghrelin Receptor GHS-R (Homo sapiens, UniProt Q92847); assay: GHS-R GTPγS functional agonist assay; type: biochemical; parameters: The open reading frame of GHS-R was transferred from pCDN into pFastBacmam vector; expressed in transfected cells; host or cells: Membranes of HEK293T cells (Lipofectamine, pCDNA3) or of HEK293F cells (BacMam co-transduction with rat Gαo); conditions: membranes of HEK293 cells transiently expressing GHS-R (protocols I and II); [35S]GTPγS SPA; read-out: activity in the GHS-R GTPγS functional agonist assays
Ghrelin Receptor GHS-R [2] = biological target: T1, Ghrelin Receptor GHS-R; assay: GHSR Agonist BACMAM FLIPR Assay; type: cell-based; parameters: The open reading frame of GHS-R was transferred from pCDN into pFastBacmam vector; expressed in transfected cells; host or cells: HEK MSR II cells or U2OS cells transduced with human GHSR BacMam virus; conditions: HEK MSR II or U2OS cells transduced with human GHSR BACMAM virus; Fluo 4 calcium fluorescence

| EC50 (Ghrelin Receptor GHS-R [1]) | EC50 (Ghrelin Receptor GHS-R [2]) | Compound |
| --- | --- | --- |
| < 1000 nM | < 1000 nM | CCOc1ccc(NS(=O)(=O)c2ccc(-c3cccs3)cc2)cc1N1C[C@@H](C)N[C@@H](C)C1 [Example 310, N-[3-(cis-3,5-Dimethyl-1-piperazinyl)-4-(ethyloxy)phenyl]-4-(2-thienyl)benzenesulfonamide] |
| < 1000 nM | < 1000 nM | COc1ccc(N2C[C@@H](C)N[C@@H](C)C2)cc1NS(=O)(=O)c1cc(-c2cc(C)cs2)ccc1OC [Example 181, N-[5-(cis-3,5-Dimethyl-1-piperazinyl)-2-(methyloxy)phenyl]-2-(methyloxy)-5-(4-methyl-2-thienyl)benzenesulfonamide] |
| < 1000 nM | < 1000 nM | COc1ccc(N2C[C@@H](C)N[C@@H](C)C2)cc1NS(=O)(=O)c1ccc(Br)c2ccccc12 [Example 253, 4-Bromo-N-[5-(cis-3,5-dimethyl-1-piperazinyl)-2-(methyloxy)phenyl]-1-naphthalenesulfonamide] |
| < 1000 nM | < 1000 nM | COc1ccc(N2C[C@@H](C)N[C@@H](C)C2)cc1NS(=O)(=O)c1ccc(-c2cccc(Cl)c2)cc1 [Example 111, 3′-Chloro-N-[5-(cis-3,5-dimethyl-1-piperazinyl)-2-(methyloxy)phenyl]-4-biphenylsulfonamide] |
| < 1000 nM | < 1000 nM | COc1ccc(NS(=O)(=O)c2ccc(-c3ccccc3F)cc2)cc1N1C[C@@H](C)N[C@@H](C)C1 [Example 141, N-[3-(cis-3,5-Dimethyl-1-piperazinyl)-4-(methyloxy)phenyl]-2′-fluoro-4-biphenylsulfonamide] |
| < 1000 nM | < 1000 nM | C[C@@H]1CN(c2cc(NS(=O)(=O)c3ccc(-c4ccccn4)s3)ccc2OC(F)(F)F)C[C@H](C)N1 [Example 246, N-{3-(cis-3,5-Dimethyl-1-piperazinyl)-4-[(trifluoromethyl)oxy]phenyl}-5-(2-pyridinyl)-2-thiophenesulfonamide] |
| < 1000 nM | < 1000 nM | COc1ccc(NS(=O)(=O)c2cccc(-c3ccsc3)n2)cc1N1C[C@@H](C)N[C@@H](C)C1 [Example 20, N-[3-(cis-3,5-Dimethyl-1-piperazinyl)-4-(methyloxy)phenyl]-6-(3-thienyl)-2-pyridinesulfonamide] |
| < 1000 nM | < 1000 nM | COc1ccc(N2C[C@@H](C)N[C@@H](C)C2)cc1NS(=O)(=O)c1ccc(-c2ccoc2)cc1 [Example 118, N-[5-(cis-3,5-Dimethyl-1-piperazinyl)-2-(methyloxy)phenyl]-4-(3-furanyl)benzenesulfonamide] |
| < 1000 nM | < 1000 nM | COc1ccc(NS(=O)(=O)c2ccc(-c3ccoc3)s2)cc1N1C[C@@H](C)N[C@@H](C)C1 [Example 242, N-[3-(cis-3,5-Dimethyl-1-piperazinyl)-4-(methyloxy)phenyl]-5-(3-furanyl)-2-thiophenesulfonamide] |
| < 1000 nM | < 1000 nM | COc1ccc(NS(=O)(=O)c2ccc(-c3c(C)cccc3C)cc2)cc1N1C[C@@H](C)N[C@@H](C)C1 [Example 149, N-[3-(cis-3,5-Dimethyl-1-piperazinyl)-4-(methyloxy)phenyl]-2′,6′-dimethyl-4-biphenylsulfonamide] |
| < 1000 nM | < 1000 nM | COc1ccc(NS(=O)(=O)c2cccc3cccnc23)cc1N1C[C@@H](C)N[C@@H](C)C1 [Example 9, N-[3-(cis-3,5-Dimethyl-1-piperazinyl)-4-(methyloxy)phenyl]-8-quinolinesulfonamide] |
| < 1000 nM | < 1000 nM | COc1ccc(N2C[C@@H](C)N[C@@H](C)C2)cc1NS(=O)(=O)c1ccc(-c2ccco2)cc1F [Example 112, N-[5-(cis-3,5-Dimethyl-1-piperazinyl)-2-(methyloxy)phenyl]-2-fluoro-4-(2-furanyl)benzenesulfonamide] |
| < 1000 nM | < 1000 nM | COc1ccc(N2C[C@@H](C)N[C@@H](C)C2)cc1NS(=O)(=O)c1ccc(-c2ccc(C)o2)nc1 [Example 274, N-[5-(cis-3,5-Dimethyl-1-piperazinyl)-2-(methyloxy)phenyl]-6-(5-methyl-2-furanyl)-3-pyridinesulfonamide] |
| < 1000 nM | < 1000 nM | COc1cc(F)c(NS(=O)(=O)c2ccc(I)cc2)cc1N1C[C@@H](C)N[C@@H](C)C1 [Example 90, N-[5-(cis-3,5-Dimethyl-1-piperazinyl)-2-fluoro-4-(methyloxy)phenyl]-4-iodobenzenesulfonamide] |
| < 1000 nM | < 1000 nM | COc1ccc(NS(=O)(=O)c2ccc(-c3ccsc3)cc2)cc1N1C[C@@H](C)N[C@@H](C)C1 [Example 132, N-[3-(cis-3,5-Dimethyl-1-piperazinyl)-4-(methyloxy)phenyl]-4-(3-thienyl)benzenesulfonamide] |
| < 1000 nM | < 1000 nM | COc1ccc(N2C[C@@H](C)N[C@@H](C)C2)cc1NS(=O)(=O)c1ccc(Cl)c2nonc12 [Example 93, 7-Chloro-N-[5-(cis-3,5-dimethyl-1-piperazinyl)-2-(methyloxy)phenyl]-2,1,3-benzoxadiazole-4-sulfonamide] |
| < 1000 nM | < 1000 nM | C[C@@H]1CN(c2cccc(NS(=O)(=O)c3cccc4ccccc34)c2)C[C@H](C)N1 [Example 64, N-[3-(cis-3,5-Dimethyl-1-piperazinyl)phenyl]-1-naphthalenesulfonamide] |
| < 1000 nM | < 1000 nM | Cc1csc(-c2ccc(S(=O)(=O)Nc3cc(N4C[C@@H](C)N[C@@H](C)C4)ccc3C)cc2)c1 [Example 174, N-[5-(cis-3,5-Dimethyl-1-piperazinyl)-2-methylphenyl]-4-(4-methyl-2-thienyl)benzenesulfonamide] |
| < 1000 nM | < 1000 nM | COc1ccc(NS(=O)(=O)c2ccc(-c3ccccc3Cl)s2)cc1N1C[C@@H](C)N[C@@H](C)C1 [Example 225, 5-(2-Chlorophenyl)-N-[3-(cis-3,5-dimethyl-1-piperazinyl)-4-(methyloxy)phenyl]-2-thiophenesulfonamide] |
| < 1000 nM | < 1000 nM | COc1ccc(N2C[C@@H](C)N[C@@H](C)C2)cc1NS(=O)(=O)c1ccc(-c2nsc(Cl)n2)s1 [Example 254, 5-(5-Chloro-1,2,4-thiadiazol-3-yl)-N-[5-(cis-3,5-dimethyl-1-piperazinyl)-2-(methyloxy)phenyl]-2-thiophenesulfonamide] |
| < 1000 nM | < 1000 nM | COc1ccc(N2C[C@@H](C)N[C@@H](C)C2)cc1NS(=O)(=O)c1ccc(-c2ccco2)c(F)c1 [Example 307, N-[5-(cis-3,5-Dimethyl-1-piperazinyl)-2-(methyloxy)phenyl]-3-fluoro-4-(2-furanyl)benzenesulfonamide] |
| < 1000 nM | < 1000 nM | COc1ccc(N2C[C@@H](C)N[C@@H](C)C2)cc1NS(=O)(=O)c1ccc(-c2ccsc2)cc1 [Example 119, N-[5-(cis-3,5-Dimethyl-1-piperazinyl)-2-(methyloxy)phenyl]-4-(3-thienyl)benzenesulfonamide] |
| < 1000 nM | < 1000 nM | Cc1csc(-c2ccc(S(=O)(=O)Nc3cc(N4C[C@@H](C)N[C@@H](C)C4)ccc3F)c(C)c2)c1 [Example 266, N-[5-(cis-3,5-Dimethyl-1-piperazinyl)-2-fluorophenyl]-2-methyl-4-(4-methyl-2-thienyl)benzenesulfonamide] |
| < 1000 nM | < 1000 nM | COc1ccc(N2C[C@@H](C)N(C)[C@@H](C)C2)cc1NS(=O)(=O)c1ccc(-c2cccs2)cc1 [Example 277, N-[2-(Methyloxy)-5-(cis-3,4,5-trimethyl-1-piperazinyl)phenyl]-4-(2-thienyl)benzenesulfonamide] |
| < 1000 nM | < 1000 nM | COc1ccc(N2C[C@@H](C)N[C@@H](C)C2)cc1NS(=O)(=O)c1ccc(-c2ccoc2)cc1F [Example 165, N-[5-(cis-3,5-Dimethyl-1-piperazinyl)-2-(methyloxy)phenyl]-2-fluoro-4-(3-furanyl)benzenesulfonamide] |
| < 1000 nM | < 1000 nM | COc1ccc(N2C[C@@H](C)N[C@@H](C)C2)cc1NS(=O)(=O)c1cc(C)c(-c2cccc(C)n2)s1 [Example 193, N-[5-(cis-3,5-Dimethyl-1-piperazinyl)-2-(methyloxy)phenyl]-4-methyl-5-(6-methyl-2-pyridinyl)-2-thiophenesulfonamide] |
| < 1000 nM | < 1000 nM | COc1ccc(NS(=O)(=O)c2ccc(-c3cccs3)cc2C)cc1N1C[C@@H](C)N[C@@H](C)C1 [Example 143, N-[3-(cis-3,5-Dimethyl-1-piperazinyl)-4-(methyloxy)phenyl]-2-methyl-4-(2-thienyl)benzenesulfonamide] |
| < 1000 nM | < 1000 nM | C[C@@H]1CN(c2ccc(F)c(NS(=O)(=O)c3ccc(Br)cc3Cl)c2)C[C@H](C)N1 [Example 87, 4-Bromo-2-chloro-N-[5-(cis-3,5-dimethyl-1-piperazinyl)-2-fluorophenyl]benzenesulfonamide] |
| < 1000 nM | < 1000 nM | COc1ccc(NS(=O)(=O)c2ccc(-c3cccc(Cl)c3)s2)cc1N1C[C@@H](C)N[C@@H](C)C1 [Example 227, 5-(3-Chlorophenyl)-N-[3-(cis-3,5-dimethyl-1-piperazinyl)-4-(methyloxy)phenyl]-2-thiophenesulfonamide] |
